The campaign covered roughly 220,000 compounds. About 770 (0.35%) were called active. The inconclusive results got no clear call from the source; some entries with a clear call stand among them for comparison. Rule as the data show it: active = binding response below about 49% or above about 150%; inconclusive = no clear call, values can overlap the other calls; inactive = in between.
These compounds were tested against Guanine nucleotide-binding protein G(o) subunit alpha (Homo sapiens) (UniProt P09471) (assay: RGS7-Galphao binding modulators, primary screen, biochemical, multiplexed bead flow cytometry (AID 1439;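 also: fluorescent Galphao held in activated GDP-AlF4 state binding bead-coupled RGS7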)). Details: at 10 µM, actives lie on both sides.

By UniProt entry, the sequences of proteins in these tests, tags left out.
UniProt P09471, whole entry, looked up: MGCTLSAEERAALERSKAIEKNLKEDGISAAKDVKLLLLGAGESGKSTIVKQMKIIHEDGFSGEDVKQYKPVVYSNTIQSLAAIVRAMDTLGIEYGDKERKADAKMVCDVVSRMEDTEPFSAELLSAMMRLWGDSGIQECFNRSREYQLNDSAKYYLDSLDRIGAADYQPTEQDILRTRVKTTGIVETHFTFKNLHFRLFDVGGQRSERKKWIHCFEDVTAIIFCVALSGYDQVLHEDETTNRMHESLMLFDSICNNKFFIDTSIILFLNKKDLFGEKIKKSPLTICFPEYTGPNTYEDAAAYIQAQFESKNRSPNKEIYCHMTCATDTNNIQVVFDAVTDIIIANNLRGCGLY

Row | SMILES | binding response (% of control)
1 | Cc1ccc(C2=NOC(C)(c3nnc(-c4ccc(Cl)cc4)o3)C2)cc1 (stereo unspecified) | inconclusive: 116%
2 | CCOC(=O)c1c(C)nc(SC)c(C#N)c1-c1ccccc1 | inactive: 106%
3 | Cc1cc(SCC(=O)c2ccc(O)c(O)c2)n2nc(C)c(-c3ccccc3)c2n1 | inconclusive: 188%
4 | Cc1ccc(S(=O)(=O)/C(C#N)=C/c2c(N3CCCCC3)nc3ccccn3c2=O)cc1 | inconclusive: 103%
5 | Cc1ccc(-c2cc(C(=O)NN)n[nH]2)o1 | inconclusive: 108%
6 | CC1(OC(=O)C2CCCC2)C(=O)C=C2C=C(c3ccsc3)N(C3CC3)C=C2C1=O (stereo unspecified) | inconclusive: 74.5%
7 | Cc1ccc(S(=O)(=O)NC(C)(C)CSc2ccccn2)cc1 | inactive: 91.7%
8 | CC(C)c1nc(Cl)c(C#N)c2c1COC(C)(C)C2 | inconclusive: 131%
9 | Cc1ccn2c(Nc3ccc4c(c3)OCO4)c(-c3ccc(O)cc3)nc2c1 | inconclusive: 42%
10 | Cc1c(C(c2cccs2)c2c(C)n(C)n(-c3ccccc3)c2=O)c(=O)n(-c2ccccc2)n1C | inconclusive: 181%
11 | CCCCC1=CC2=CC(=O)C(C)(OC(=O)CC)C(=O)C2=CN1CCc1ccccn1 (stereo unspecified) | inconclusive: 64.6%
12 | C/C=C\C=C/C(=O)Nc1cccc(C2=NOC3(C2)C[C@@H](C(N)=O)N(C(=O)[C@H]2CCC(=O)N2)C3)c1 (stereo partly specified) | inconclusive: 107%
13 | Cc1cc(-n2c(=O)c(C#N)cc3c(=O)n4ccccc4nc32)no1 | inactive: 86%
14 | CCOC(=O)c1c(C)[nH]c(N=Nc2cccc(OC)c2)c1C | inconclusive: 92.1%
15 | CCOC(=O)C(Cc1c(F)cccc1Cl)c1ccnc2nc(N)nn12 (stereo unspecified) | inconclusive: 83.6%
16 | O=C(NN=C1CCCC1)c1[nH]c2ccc(Br)cc2c1-c1ccccc1 | inconclusive: -187%
17 | O=C(N/N=C/c1[nH]c2ccccc2c1Cl)c1cccc(Br)c1 | inconclusive: 113%
18 | O=C(CSc1nnc(-c2ccc(Cl)cc2)n1-c1ccc(Cl)cc1)N/N=C/c1ccccc1C(=O)O | inconclusive: 95.7%
19 | Cc1ccc[n+](CC(=O)N2CCCCC2)c1C | inconclusive: 124%
20 | Cc1ccc(/C=C/C(=O)N2CCN(S(=O)(=O)c3cccs3)CC2)o1 | inconclusive: 60.6%
21 | CN1/C(=C\C(=O)COC(=O)c2ccccc2O)C(C)(C)c2ccccc21 | inconclusive: 286%
22 | O=C(Cn1cnc2c(nnn2Cc2ccc(F)cc2)c1=O)NCc1ccccc1 | inconclusive: 104%
23 | O=C(NCc1ccc(-c2csnn2)cc1)c1cc(Cl)cc(Cl)c1 | inconclusive: 13.4%

Row | SMILES | binding response (% of control)
24 | CNC(=O)CCc1ccc(OC)cc1 | inconclusive: 91.1%
25 | C=CCn1c(SCC(=O)N(CC)C2CCS(=O)(=O)C2)nc2ccccc2c1=O (stereo unspecified) | inconclusive: 99.2%
26 | O=C(COC(=O)/C=C/C(=O)OCC(=O)NC12CC3CC(CC(C3)C1)C2)NC12CC3CC(CC(C3)C1)C2 | inactive: 99.8%
27 | CCOc1ccccc1NS(=O)(=O)N(C)C | inactive: 61.5%
28 | CCCC(C(=O)O)n1c(O)c(C=C2N=c3ccccc3=N2)sc1=S (stereo unspecified) | inconclusive: 124%
29 | O=C(c1ccc(C(F)(F)F)cc1)C1CCCN(C(=O)CCN2CCCO2)C1 (stereo unspecified) | inactive: 104%
30 | O=S(=O)(c1cccc(C(F)(F)F)c1)N1CCN(c2cnccn2)CC1 | inconclusive: 85.5%
31 | Cc1cc(C)nc(NC(N)=S)n1 | inconclusive: -36.9%
32 | Cc1ccc2c(c1)c1c(n2CC(O)CNC2CCCC2)CCCC1 (stereo unspecified) | inconclusive: 129%
33 | COC(=O)Cn1c(=O)c2c(n(Cc3ccccc3)c1=O)N/C(=C/c1ccc(OC)cc1)C2=O | inconclusive: 129%
34 | O=P(c1ccccc1)(c1ccccc1)C(c1ccccn1)P(=O)(c1ccccc1)c1ccccc1 | inconclusive: 111%
35 | NS(=O)(=O)c1ccc(NC(=O)COC(=O)C2CC(=O)N(Cc3ccccc3)C2)cc1 (stereo unspecified) | inconclusive: 110%
36 | CCN(CC)CCC(c1ccc(N(C)C)cc1)c1c(O)cc(OC)cc1OC (stereo unspecified) | inconclusive: 132%
37 | C/C(N)=C(/C#N)C(=O)CSc1nnc(-c2ccccc2)n1C | inconclusive: 244%
38 | C=CCn1c(Cc2cccs2)nnc1SCC(=O)Nc1cccc(OC)c1 | inactive: 103%
39 | CCNC(=S)Nc1cc(-c2ccc(Cl)cc2)[nH]n1 | inactive: 105%
40 | O=C(/C=C/c1ccccc1)Nc1ccc(Cl)cn1 | inactive: 97.3%
41 | O=C(NCc1ccccc1C(F)(F)F)C1CC(c2ccc(C(F)(F)F)cc2)=NO1 (stereo unspecified) | inconclusive: 85.6%
42 | CCOC(=O)c1ccc(-n2c(CN3CCN(CCO)CC3)nc3ccc([N+](=O)[O-])cc3c2=O)cc1 | inconclusive: 103%
43 | Oc1c(Br)cc(Br)cc1CNc1ccccn1 | inconclusive: 94.5%
44 | Cc1nc(C(=O)NCCC(C)C)sc1C1(C)CC(c2cccc([N+](=O)[O-])c2)=NO1 (stereo unspecified) | inconclusive: 101%
45 | Cc1cc(C)cc(NC(=O)Oc2ccccc2N2CCCCC2)c1 | inconclusive: 106%
46 | O=C(CCNC(=O)c1ccc([N+](=O)[O-])cc1)Nc1cccc(S(=O)(=O)N2CCCCC2)c1 | inconclusive: 107%

A draw from above in order of molecular weight, low to high:
Row | SMILES | binding response (% of control)
31 | Cc1cc(C)nc(NC(N)=S)n1 | inconclusive: -36.9%
44 | Cc1nc(C(=O)NCCC(C)C)sc1C1(C)CC(c2cccc([N+](=O)[O-])c2)=NO1 (stereo unspecified) | inconclusive: 101%
35 | NS(=O)(=O)c1ccc(NC(=O)COC(=O)C2CC(=O)N(Cc3ccccc3)C2)cc1 (stereo unspecified) | inconclusive: 110%
